According to PubChem BioAssay AID1259415 (National Center for Advancing Translational Sciences (NCATS), 2018):
Out of some 410,000 compounds screened, about 18,000 (4.4%) were called active. Inconclusive results, whose numbers are uncertain, are shown with a selection of clear calls. No stated cut-off is given here; in the data, active means activity change below about -60%; inconclusive means no clear call, values can overlap the other calls; inactive means above about -39%.

assay: qHTS Assay for inhibitors of the human cytomegalovirus (HCMV); conditions: HFF cells, HCMV-luciferase reporter, 72 h; at 57.5 µM; hits give low values
How it was run: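 Luciferase read-out from HCMV-luciferase-infected HFFs (MOI 1 PFU/cell) 72 h post infection at 37C; compounds added after 16 h cell attachment; activity normalized between buffer-only basal and Salinomycin (10uM) inhibitor controls.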
On the % scale 0 is the no-effect control and ±100 the full control effect.

Row | SMILES | activity change, negative = inhibition
1 | CCN1C(=O)S/C(=C/c2ccc(Sc3nc4ccccc4[nH]3)o2)C1=O | active: -65.3%
2 | Cc1cccc(Nc2ncnc3nc[nH]c23)c1C | inactive: 11.9%
3 | O=C(Nc1ccc(-c2nc3ccccc3c(=O)o2)cc1)c1ccco1 | inconclusive: -48.4%
4 | NC(=O)N/N=C/C=C/c1ccc(F)cc1 | inactive: 8.59%
5 | O=C(c1ccccc1)c1ccc(OCC(O)CN2CCN(S(=O)(=O)N3CCCCC3)CC2)cc1 (stereo unspecified) | active: -66.9%
6 | c1ccc(-c2nc(NCC3CCCO3)c3ccccc3n2)nc1 (stereo unspecified) | active: -97.4%
7 | COc1ccccc1Nc1ccc2nonc2c1[N+](=O)[O-] | inconclusive: -41.9%
8 | CCOC(=O)c1ccc(NS(=O)(=O)c2cc(C)ccc2OC)cc1 | inconclusive: -47.1%
9 | CC1NC(=O)c2cccnc2-n2c1nc1ccccc1c2=O (stereo unspecified) | inactive: -7.48%
10 | Cc1ccc(NC(=O)CN(C)C(=O)C2CSC3(C)CCC(=O)N23)cc1 (stereo unspecified) | inactive: 27.3%
11 | Cc1ccccc1-n1ncc2c1CC(C)(C)CC2NC(=O)CCC(F)(F)F (stereo unspecified) | inactive: 36.9%
12 | O=C(NC1CCN(C(=O)N2c3ccccc3Sc3ccccc32)CC1)c1ccccc1F | inconclusive: -50.9%
13 | CSc1ccc(CCNc2ncnc3onc(C)c23)cc1 | active: -65.2%
14 | Cc1cccc(CN2CCC(C(=O)Nc3ccc(-n4nc(C)cc4C)cc3)CC2)n1 | inconclusive: -41.8%
15 | Cc1ccc(S(=O)(=O)N(C)C)cc1NC(=O)c1cc(S(=O)(=O)N2CCCCC2)ccc1N1CCOCC1 | inconclusive: -43.6%
16 | CCC1=NN(C(=O)c2ccccc2O)C(O)(c2ccccc2)C1 (stereo unspecified) | active: -75.6%
17 | COc1cc2ccccc2cc1C(=O)N1CC(C)OC(C)C1 (stereo unspecified) | inactive: 4.73%
18 | Cc1ccc(C)c(NC(=O)CN(C)C(=O)Cn2c(=O)oc3ccccc32)c1 | inactive: 2.13%
19 | Cc1cccc(N/C(N)=N/c2nc(C(F)(F)F)cc(=O)[nH]2)c1C | active: -104%
20 | O=C(c1ccc(N2CCCC2)c([N+](=O)[O-])c1)N1CCc2ccccc2C1 | inconclusive: -56.5%
21 | CCN(CC)C(=O)c1ccc2nc3ccccc3nc2c1 | active: -95%
22 | Cc1ccc(CN2C3CCCC2CC(NC(=S)NCc2ccccc2)C3)cc1 (stereo unspecified) | active: -66.6%
23 | CC1=C(C(=O)N2CCc3ccccc32)C2(CCC(C)CC2)OC1=O (stereo unspecified) | inactive: 5.36%
24 | Cc1nn(-c2ccccc2)c(Cl)c1/C=C1\SC(=S)NC1=O | inconclusive: -50.7%
25 | COc1ccc(CCN2C(=O)C3C4CCC(C4=C(C)C)C3C2=O)cc1OC (stereo unspecified) | inconclusive: -43.3%
26 | C/C(CC(=O)NCc1ccco1)=N\NC(=O)c1ccc(Cl)cc1Cl | inactive: 11.2%
